# Experimental data as given in patent US10299475B2, “Pesticide” (ISHIHARA SANGYO KAISHA, LTD., priority 2013, dated 2019).
# Some results were stated once for a whole list of compounds, not compound by compound.
# Test system: Haemaphysalis longicornis (larvae)
# Experiment: Test for examining effect on Haemaphysalis longicornis (larvae), coated vial contact test
# Assay type: in vivo
# Settings: 100 ppm solution coated on plastic vial, 20 larvae, 24 hours after contact, 25° C., constant dark, relative humidity 80-100%
# Text: Test for Examining Effect on Haemaphysalis longicornis (larvae)
row,SMILES,mortality
1,O=C(NC1CCC1)c1ccc(CCOc2cccc(OC(F)(F)F)c2)cc1 [1-215],≥ 90%
2,O=C(NC1CCCCC1)c1ccc(CCOc2cccc(OC(F)(F)F)c2)cc1 [1-217],≥ 90%
3,O=C(NC1CCCCCC1)c1ccc(CCOc2cccc(OC(F)(F)F)c2)cc1 [1-219],≥ 90%
4,CC1CCCCC1NC(=O)c1ccc(CCOc2cccc(OC(F)(F)F)c2)cc1 (stereo not shown) [1-220],≥ 90%
5,Cc1ccccc1NC(=O)c1ccc(CCOc2cccc(OC(F)(F)F)c2)cc1 [1-222],≥ 90%
6,O=C(NC1CCCC1)c1ccc(CCOc2cccc(OC(F)(F)F)c2)cc1 [1-226],≥ 90%
7,CCc1ccccc1NC(=O)c1ccc(CCOc2cccc(OC(F)(F)F)c2)cc1 [1-227],≥ 90%
8,O=C(Nc1ccccc1C(F)(F)F)c1ccc(CCOc2cccc(OC(F)(F)F)c2)cc1 [1-229],≥ 90%
9,O=C(Nc1ccccc1Br)c1ccc(CCOc2cccc(OC(F)(F)F)c2)cc1 [1-230],≥ 90%
10,COc1ccccc1NC(=O)c1ccc(CCOc2cccc(OC(F)(F)F)c2)cc1 [1-231],≥ 90%
11,O=C(Nc1ccccc1Cl)c1ccc(CCOc2cccc(OC(F)(F)F)c2)cc1 [1-233],≥ 90%
12,O=C(Nc1ccccc1F)c1ccc(CCOc2cccc(OC(F)(F)F)c2)cc1 [1-235],≥ 90%
13,Cc1cccc(C)c1NC(=O)c1ccc(CCOc2cccc(OC(F)(F)F)c2)cc1 [1-237],≥ 90%
14,Cc1ccc(NC(=O)c2ccc(CCOc3cccc(OC(F)(F)F)c3)cc2)c(C)c1 [1-239],≥ 90%
15,Cc1cccc(NC(=O)c2ccc(CCOc3cccc(OC(F)(F)F)c3)cc2)c1C [1-240],≥ 90%
16,Cc1ccncc1NC(=O)c1ccc(CCOc2cccc(OC(F)(F)F)c2)cc1 [1-243],≥ 90%
17,CC(C)CNC(=O)c1ccc(CCOc2cccc(F)c2Br)cc1 [1-246],≥ 90%
18,CC(C)CNC(=O)c1ccc(CCOc2cc(F)ccc2Br)cc1 [1-247],≥ 90%
19,CC(C)CNC(=O)c1ccc(CCOc2cc(F)cc(Cl)c2)cc1 [1-248],≥ 90%
20,CC(C)CNC(=O)c1ccc(CCOc2ccc(Br)c(Br)c2)cc1 [1-249],≥ 90%
21,CC(C)CNC(=O)c1ccc(CCOc2ccc(F)c(Br)c2)cc1 [1-250],≥ 90%
22,CC(C)CNC(=O)c1ccc(CCOc2ccc(Cl)c(Br)c2)cc1 [1-251],≥ 90%
23,CC(C)CNC(=O)c1ccc(CCOc2cc(Cl)cc(Br)c2)cc1 [1-252],≥ 90%

row,SMILES,mortality
1,CC(C)CNC(=O)c1ccc(CCOc2cccc(N(C)C)c2)cc1 [1-253],≥ 90%
2,CC(C)CNC(=O)c1ccc(CCOc2ccc(OC(F)(F)F)c(Cl)c2)cc1 [1-256],≥ 90%
3,CC(C)CNC(=O)c1ccc(CCOc2cc(F)c(Br)c(F)c2)cc1 [1-257],≥ 90%
4,CC(C)CNC(=O)c1ccc(CCOc2ccc(I)cc2)cc1 [1-258],≥ 90%
5,Cc1cc(Br)ccc1OCCc1ccc(C(=O)NCC(C)C)cc1 [1-259],≥ 90%
6,Cc1cc(OCCc2ccc(C(=O)NCC(C)C)cc2)ccc1Br [1-260],≥ 90%
7,CC(C)C(C)NC(=O)c1ccc(CCOc2ccc(Br)c(C(F)(F)F)c2)cc1 (stereo not shown) [1-261],≥ 90%
8,Cc1ccccc1NC(=O)c1ccc(CCOc2ccc(Br)c(C(F)(F)F)c2)cc1 [1-262],≥ 90%
9,CC(C)C(C)NC(=O)c1ccc(CCOc2ccc(F)c(OC(F)(F)F)c2)cc1 (stereo not shown) [1-263],≥ 90%
10,Cc1ccccc1NC(=O)c1ccc(CCOc2ccc(F)c(OC(F)(F)F)c2)cc1 [1-264],≥ 90%
11,CC(C)C(C)NC(=O)c1ccc(CCOc2ccc(Br)cc2)cc1 (stereo not shown) [1-265],≥ 90%
12,Cc1ccccc1NC(=O)c1ccc(CCOc2ccc(Br)cc2)cc1 [1-266],≥ 90%
13,CC(C)CNC(=O)c1ccc(CCOc2ccc(Br)c(F)c2F)cc1 [1-267],≥ 90%
14,CC(C)CNC(=O)c1ccc(CCOc2cc(F)c(Br)cc2F)cc1 [1-268],≥ 90%
15,CC(C)CNC(=O)c1ccc(CCOc2cccc(C(C)(C)C)c2)cc1 [1-269],≥ 90%
16,CC(C)CNC(=O)c1ccc(CCOc2cccc(C(C)C)c2)cc1 [1-270],≥ 90%
17,CC(C)(C)CNC(=O)c1ccc(CCOc2ccc(Br)c(C(F)(F)F)c2)cc1 [1-272],≥ 90%
18,CC(C)(C)CNC(=O)c1ccc(CCOc2ccc(F)c(OC(F)(F)F)c2)cc1 [1-273],≥ 90%
19,CC(C)(C)CNC(=O)c1ccc(CCOc2ccc(Br)cc2)cc1 [1-274],≥ 90%
20,CCC(C)CNC(=O)c1ccc(CCOc2ccc(Br)c(C(F)(F)F)c2)cc1 (stereo not shown) [1-275],≥ 90%
21,CCC(C)CNC(=O)c1ccc(CCOc2ccc(F)c(OC(F)(F)F)c2)cc1 (stereo not shown) [1-276],≥ 90%
22,CCC(C)CNC(=O)c1ccc(CCOc2ccc(Br)cc2)cc1 (stereo not shown) [1-277],≥ 90%
23,CC(C)CNC(=O)c1ccc(CCOc2ccc(Br)c(C#N)c2)cc1 [1-278],≥ 90%

row,SMILES,mortality
1,CC(C)C(C)NC(=O)c1ccc(CCOc2cccc(OC(F)(F)F)c2)cc1F (stereo not shown) [1-279],≥ 90%
2,Cc1ccccc1NC(=O)c1ccc(CCOc2cccc(OC(F)(F)F)c2)cc1F [1-280],≥ 90%
3,CC(=O)N(CC(C)C)C(=O)c1ccc(CCOc2cccc(OC(F)(F)F)c2)cc1 [1-281],≥ 90%
4,O=C(NCC1CCOC1)c1ccc(CCOc2cccc(OC(F)(F)F)c2)cc1 (stereo not shown) [1-285],≥ 90%
5,CC(C)CNC(=O)c1ccc(CCOc2cccc(S(F)(F)(F)(F)F)c2)cc1 [1-286],≥ 90%
6,Cc1ccccc1N(C)C(=O)c1ccc(CCOc2cccc(OC(F)(F)F)c2)cc1 [1-292],≥ 90%
7,CC1CC1NC(=O)c1ccc(CCOc2cccc(OC(F)(F)F)c2)cc1 (stereo not shown) [1-294],≥ 90%
8,CC1(C)CC1NC(=O)c1ccc(CCOc2cccc(OC(F)(F)F)c2)cc1 (stereo not shown) [1-295],≥ 90%
9,O=C(NC1COC1)c1ccc(CCOc2cccc(OC(F)(F)F)c2)cc1 [1-296],≥ 90%
10,CC(=O)N(C(=O)c1ccc(CCOc2cccc(OC(F)(F)F)c2)cc1)c1ccccc1C [1-297],≥ 90%
11,Cc1cscc1NC(=O)c1ccc(CCOc2cccc(OC(F)(F)F)c2)cc1 [1-298],≥ 90%
12,CC(C)CNC(=O)c1ccc(CCOc2ccc(Br)c(I)c2)cc1 [1-327],≥ 90%
13,CC(C)C(C)NC(=O)c1ccc(CCOc2ccc3c(c2)OC(F)(F)O3)cc1 (stereo not shown) [2-2],≥ 90%
14,CC(C)(C)CNC(=O)c1ccc(CCOc2ccc3c(c2)OC(F)(F)O3)cc1 [2-3],≥ 90%
15,Cc1ccccc1NC(=O)c1ccc(CCOc2ccc3c(c2)OC(F)(F)O3)cc1 [2-4],≥ 90%
16,CC(C)CNC(=O)c1ccc(CCOc2cccc(-c3ccccc3)c2)cc1 [4-1],≥ 90%
17,CC(C)CNC(=O)c1ccc(CCOc2ccc(Cl)c(-c3ccccc3)c2)cc1 [4-7],≥ 90%
18,CC(C)CNC(=O)c1ccc(CCOc2ccc(Br)c(-c3ccccc3)c2)cc1 [4-8],≥ 90%
19,CC(C)CNC(=O)c1ccc(CCOc2cc(Cl)cc(-c3ccccc3)c2)cc1 [4-10],≥ 90%
20,CC(C)CNC(=O)c1ccc(CCOc2cccc(-c3ccccc3F)c2)cc1 [4-18],≥ 90%
21,CC(C)CNC(=O)c1ccc(CCOc2cccc(-c3cccc(F)c3)c2)cc1 [4-19],≥ 90%
22,CC(C)CNC(=O)c1ccc(CCOc2cccc(-c3ccc(F)cc3)c2)cc1 [4-20],≥ 90%
23,CC(C)CNC(=O)c1ccc(CCOc2cccc(-c3ccccc3Cl)c2)cc1 [4-21],≥ 90%

row,SMILES,mortality
1,CC(C)CNC(=O)c1ccc(CCOc2cccc(-c3cccc(Cl)c3)c2)cc1 [4-22],≥ 90%
2,CC(C)CNC(=O)c1ccc(CCOc2cccc(-c3ccc(Cl)cc3)c2)cc1 [4-23],≥ 90%
3,CC(C)CNC(=O)c1ccc(CCOc2cccc(-c3cccc(Br)c3)c2)cc1 [4-25],≥ 90%
4,CC(C)CNC(=O)c1ccc(CCOc2cccc(-c3ccc(Br)cc3)c2)cc1 [4-26],≥ 90%
5,Cc1ccccc1-c1cccc(OCCc2ccc(C(=O)NCC(C)C)cc2)c1 [4-30],≥ 90%
6,Cc1cccc(-c2cccc(OCCc3ccc(C(=O)NCC(C)C)cc3)c2)c1 [4-31],≥ 90%
7,Cc1ccc(-c2cccc(OCCc3ccc(C(=O)NCC(C)C)cc3)c2)cc1 [4-32],≥ 90%
8,CC(C)CNC(=O)c1ccc(CCOc2cccc(-c3ccccc3C(F)(F)F)c2)cc1 [4-33],≥ 90%
9,CC(C)CNC(=O)c1ccc(CCOc2cccc(-c3cccc(C(F)(F)F)c3)c2)cc1 [4-34],≥ 90%
10,CC(C)CNC(=O)c1ccc(CCOc2cccc(-c3ccc(C(F)(F)F)cc3)c2)cc1 [4-35],≥ 90%
11,COc1ccccc1-c1cccc(OCCc2ccc(C(=O)NCC(C)C)cc2)c1 [4-36],≥ 90%
12,COc1cccc(-c2cccc(OCCc3ccc(C(=O)NCC(C)C)cc3)c2)c1 [4-37],≥ 90%
13,CC(C)CNC(=O)c1ccc(CCOc2cccc(-c3cccc(OC(F)(F)F)c3)c2)cc1 [4-40],≥ 90%
14,CC(C)CNC(=O)c1ccc(CCOc2cccc(-c3ccc(OC(F)(F)F)cc3)c2)cc1 [4-41],≥ 90%
15,CC(C)CNC(=O)c1ccc(CCOc2cccc(-c3cccc(C#N)c3)c2)cc1 [4-76],≥ 90%
16,CC(C)CNC(=O)c1ccc(CCOc2cccc(-c3ccc(C#N)cc3)c2)cc1 [4-77],≥ 90%
17,CC(C)CNC(=O)c1ccc(CCOc2cccc(-c3cccc(F)c3F)c2)cc1 [4-180],≥ 90%
18,CC(C)CNC(=O)c1ccc(CCOc2cccc(-c3ccc(F)cc3F)c2)cc1 [4-181],≥ 90%
19,CC(C)CNC(=O)c1ccc(CCOc2cccc(-c3cc(F)ccc3F)c2)cc1 [4-182],≥ 90%
20,CC(C)CNC(=O)c1ccc(CCOc2cccc(-c3c(F)cccc3F)c2)cc1 [4-183],≥ 90%
21,CC(C)CNC(=O)c1ccc(CCOc2cccc(-c3ccc(F)c(F)c3)c2)cc1 [4-184],≥ 90%
22,CC(C)CNC(=O)c1ccc(CCOc2cccc(-c3cc(F)cc(F)c3)c2)cc1 [4-185],≥ 90%
